Results are given in words; binding and its absence hold for the method and conditions named. In cells and extracts the contact can be indirect. Some entries that bind do so weakly or less than the wild type. Sequences can lack the tags named with a protein.
Experiments:
[1] = target: full-length ARNT (pCMV-Tag1-ARNT), Flag-tagged (mouse) (UniProt P53762); test: co-IP; HEK293T cells co-transfected with pCMV-Tag4 (Myc) class I partner and pCMV-Tag1 (Flag) ARNT or ARNT2, WT or mutants; 10 nM 2,3,7,8-tetrachlorodibenzo-p-dioxin added in the case of AHR; immunoprecipitation as in Wu et al., 2015
[2] = target: mouse ARNT2 (pCMV-Tag1-ARNT2), C-terminal Flag-tagged (mouse) (UniProt Q61324); test: as above

Sequences of proteins named here, by UniProt entry; tags and fusion partners are left off.
UniProt P53762: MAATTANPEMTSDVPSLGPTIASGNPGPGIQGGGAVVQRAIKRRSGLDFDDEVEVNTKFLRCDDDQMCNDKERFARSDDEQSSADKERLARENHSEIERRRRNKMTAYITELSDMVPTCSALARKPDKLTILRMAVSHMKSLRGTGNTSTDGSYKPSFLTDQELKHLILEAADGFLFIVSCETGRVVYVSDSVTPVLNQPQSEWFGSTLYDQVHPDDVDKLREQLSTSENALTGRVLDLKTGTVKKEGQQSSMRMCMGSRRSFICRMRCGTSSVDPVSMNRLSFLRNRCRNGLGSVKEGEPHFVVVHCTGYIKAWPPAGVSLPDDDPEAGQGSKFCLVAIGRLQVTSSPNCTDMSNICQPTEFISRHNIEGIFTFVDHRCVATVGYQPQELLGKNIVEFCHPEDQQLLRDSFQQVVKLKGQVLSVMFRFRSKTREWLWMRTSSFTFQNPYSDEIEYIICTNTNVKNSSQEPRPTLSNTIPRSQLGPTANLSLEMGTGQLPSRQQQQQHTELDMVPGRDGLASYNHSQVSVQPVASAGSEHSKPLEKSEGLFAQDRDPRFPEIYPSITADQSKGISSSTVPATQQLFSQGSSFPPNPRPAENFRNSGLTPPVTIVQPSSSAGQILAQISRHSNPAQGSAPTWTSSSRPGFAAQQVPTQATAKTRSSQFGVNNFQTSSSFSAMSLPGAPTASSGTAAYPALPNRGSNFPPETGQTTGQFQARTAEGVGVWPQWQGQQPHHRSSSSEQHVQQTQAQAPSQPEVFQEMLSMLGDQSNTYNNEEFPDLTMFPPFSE
UniProt Q61324: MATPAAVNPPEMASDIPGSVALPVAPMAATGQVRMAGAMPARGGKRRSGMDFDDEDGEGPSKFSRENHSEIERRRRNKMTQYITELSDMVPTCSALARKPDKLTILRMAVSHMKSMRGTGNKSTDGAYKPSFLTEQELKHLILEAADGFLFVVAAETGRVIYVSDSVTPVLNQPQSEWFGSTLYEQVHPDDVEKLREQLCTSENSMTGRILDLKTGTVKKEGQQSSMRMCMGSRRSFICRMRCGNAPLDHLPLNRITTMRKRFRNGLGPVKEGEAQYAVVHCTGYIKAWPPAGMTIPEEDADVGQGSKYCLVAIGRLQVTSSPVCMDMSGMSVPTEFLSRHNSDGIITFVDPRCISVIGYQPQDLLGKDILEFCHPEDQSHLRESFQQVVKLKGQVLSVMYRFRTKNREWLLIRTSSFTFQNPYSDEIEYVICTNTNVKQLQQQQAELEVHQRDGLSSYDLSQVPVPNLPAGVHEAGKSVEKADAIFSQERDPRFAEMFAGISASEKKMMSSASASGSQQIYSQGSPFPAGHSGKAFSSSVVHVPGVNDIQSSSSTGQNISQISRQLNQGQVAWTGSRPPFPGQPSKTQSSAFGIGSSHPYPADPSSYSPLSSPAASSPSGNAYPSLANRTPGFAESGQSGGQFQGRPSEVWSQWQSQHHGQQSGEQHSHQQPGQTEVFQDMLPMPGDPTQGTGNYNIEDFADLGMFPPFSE

| Binder | binding [1] | binding [2] |
| --- | --- | --- |
| full-length mouse NPAS4, C-terminal Myc-tagged (protein, UniProt Q8BGD7 1-802) MYRSTKGASKARRDQINAEIRNLKELLPLAEADKVRLSYLHIMSLACIYTRKGVFFAGGTPLAGPTGLLSAQELEDIVAALPGFLLVFTAEGKLLYLSESVSEHLGHSMVDLVAQGDSIYDIIDPADHLTVRQQLTMPSALDADRLFRCRFNTSKSLRRQSSGNKLVLIRGRFHAHPPGAYWAGNPVFTAFCAPLEPRPRPGPGPGPGPGPASLFLAMFQSRHAKDLALLDVSESVLIYLGFERSELLCKSWYGLLHPEDLAQASSQHYRLLAESGDIQAEMVVRLQAKHGGWTWIYCMLYSEGPEGPFTANNYPISDTEAWSLRQQLNSEDTQAAYVLGTPAVLPSFSENVFSQEQCSNPLFTPSLGTPRSASFPRAPELGVISTPEELPQPSKELDFSYLPFPARPEPSLQADLSKDLVCTPPYTPHQPGGCAFLFSLHEPFQTHLPPPSSSLQEQLTPSTVTFSEQLTPSSATFPDPLTSSLQGQLTESSARSFEDQLTPCTSSFPDQLLPSTATFPEPLGSPAHEQLTPPSTAFQAHLNSPSQTFPEQLSPNPTKTYFAQEGCSFLYEKLPPSPSSPGNGDCTLLALAQLRGPLSVDVPLVPEGLLTPEASPVKQSFFHYTEKEQNEIDRLIQQISQLAQGVDRPFSAEAGTGGLEPLGGLEPLNPNLSLSGAGPPVLSLDLKPWKCQELDFLVDPDNLFLEETPVEDIFMDLSTPDPNGEWGSGDPEAEVPGGTLSPCNNLSPEDHSFLEDLATYETAFETGVSTFPYEGFADELHQLQSQVQDSFHEDGSGGEPTF | binds | binds |
| full-length mouse NPAS1, C-terminal Myc-tagged (protein, UniProt P97459 1-594) MATPYPRSGGRGEVKCGGGRGAGVPWDFLPGLMVKAPPGPCLQAQRKEKSRNAARWRRGKENLEFFELAKLLPLPGAISSQLDKASIVRLSVTYLRLRRFAALGAPPWGLRAVGPPAGLAPGRRGPVALVSEVFEQHLGGHILQSLDGFVFALNQEGKFLYISETVSIYLGLSQVELTGSSVFDYIHPGDHSEVLEQLGLRAASIGPPTPPSVSSSSSSSSSSLVDTPEIEASPTEASPAFRAQERSFFVRMKSTLTKRGLNVKASGYKVIHVTGRLRARALGLVALGHTLPPAPLAELPLHGHMIVFRLSLGLTILACESRVSDHMDMGPSELVGRSCYQFVHGQDATRIRQSHLDLLDKGQVVTGYYRWLQRAGGFVWLQSVATVAGNGKSTGEHHVLWVSHVLSNAEGSQTPLDAFQLPAIVSQEEPSRPGPEPTEEEPPVDGKQAVPADQDKDKDPQARGKRIKVEASPKEARGSEDSGEEELSDPPAPPRPEFTSVIRAGALKHDPVLPWGLTTPGDPSPALLHAGFLPPVVRGLCTPGTIRYGPAELSLMYPHLHRLGAGPSLPEAFYPTLGLPYPGPTGTRVQRKGD | binds |  |
| full-length mouse NPAS3, C-terminal Myc-tagged (protein, UniProt Q9QZQ0 1-925) MGRAGAAANGTPQNVQGITSYQQRITAQHPLPNQSECRKIYRYDGIYCESTYQNLQALRKEKSRDAARSRRGKENFEFYELAKLLPLPAAITSQLDKASIIRLTISYLKMRDFANQGDPPWNLRMEGPPPNTSVKGAQRRRSPSALAIEVFEAHLGSHILQSLDGFVFALNQEGKFLYISETVSIYLGLSQVELTGSSVFDYVHPGDHVEMAEQLGMKLPPGRGLLSQGTTEDAASSASSSSQSETPEPVETTSPSLLTTDNTLERSFFIRMKSTLTKRGVHIKSSGYKVIHITGRLRLRVPLSHGRTVPSQIMGLVVVAHALPPPTINEVRIDCHMFVTRVNMDLNIIYCENRISDYMDLTPVDIVGKRCYHFIHAEDVEGIRHSHLDLLNKGQCVTKYYRWMQKNGGYIWIQSSATIAINAKNANEKNIIWVNYLLSNPEYKDTPMDIAQLPHLPEKASESSETSDSESDSKDTSGITEDNENSKSDEKGNQSENSEDPEPDRKKSGSACDNDMNCNDDGHSSSNPDSRDSDDSFEHSDFEHPKAAEDGFGALGPMQIKVERYVESEADLRLQPCESLTSDSAKDSDSANEAGAQASSKHQKRKRRRKRQKGGSASRRRLSSASSPGLDAGLVEPPRLLSSPHSASVLKIKTEIAEPINFDNESSIWNYPPNREISRNESPYSMTKPPTSEHFPSPQGQGGSIGGGGALHVAIPDSVLTPPGADGTAGRKTQFSGTAPVPSDPLSPPLSASPRDKHPGGGAGSGGGGPGASNSLLYTGDLEALQRLQAGNVVLPLVHRVTGTLAATSTAAQRVYTTGTIRYAPAEVTLAMQGNLLPNAHAVNFVDVNSPGFGLDPKTPMEMLYHHVHRLNMSGPFGGAVSAASLTQMPGGNVFTTAEGLFSTLPFPVYSNGIHAAQTLERKED | binds |  |

From PMC5111884
